The list does not hold the whole screen: its compounds were picked by chemical class. Other doses and runs of a compound may be missing. T/C is the treated group as % of the vehicle group. For survival time, the PubChem record calls one and a half times the control and up active, and a quarter to a half above the control has no call in these data; cut-offs in other NCI protocols can differ. Schedules are NCI's codes, read here as Q, the interval in days (D) or hours (H), X, the number of doses. Some T/C values are marked as having no survivor count here; that says nothing about deaths at the dose.

For one molecule, T/C results are on record in PubChem BioAssay AID286 (DTP/NCI, 2004).

In this test the test system is BDF1 mice, M5076 sarcoma ip, median survival T/C. Put plainly: NCI In Vivo Anticancer Drug Screen. Data for tumor model Sarcoma M5076 (intraperitoneal) in B6D2F1 (BDF1) mice. The settings on record: T/C endpoint: median survival time, schedule: Q04DX005 (ip), vehicle: saline + alcohol, higher T/C = longer survival. Here is the method:
The antitumor activity of compounds was measured in mice bearing transplantable tumors. Survival or tumor size were measured and the results are expressed as the measurement made in the treated group (T) divided by the measurement made in the vehicle treated control group (C). The tumor model used in this assay is Sarcoma M5076 (intraperitoneal) in B6D2F1 (BDF1) mice

As to `CC(=O)OCC12CCC(C)=CC1OC1C(O)C(OC(C)=O)C2(C)C12CO2` (stereo not drawn), the T/C (dose: 1.5 mg/kg/injection, evaluated on day 90) was 150 % of control [survivor count not shown]; the T/C (dose: 1.5 mg/kg/injection, evaluated on day 100) is 189 % of control [survivor count not shown]; the T/C (dose: 3.0 mg/kg/injection, evaluated on day 90) was 188 % of control [survivor count not shown]; the T/C (dose: 3.0 mg/kg/injection, evaluated on day 100) was 216 % of control [survivor count not shown]; the T/C (dose: 6.0 mg/kg/injection, evaluated on day 90) was 191 % of control [survivor count not shown]; the T/C (dose: 6.0 mg/kg/injection, evaluated on day 100) is 200 % of control [survivor count not shown]. Moreover, the T/C reads like this: (dose: 12.0 mg/kg/injection, evaluated on day 90) 191 % of control [survivor count not shown]; (dose: 12.0 mg/kg/injection, evaluated on day 100) 269 % of control [survivor count not shown].
